In PubChem BioAssay AID504842 (National Center for Advancing Translational Sciences (NCATS), 2011):
The whole screen tested about 330,000 compounds, of which about 100 (0.03%) were called active. This list was built around the results that the source calls inconclusive (neither active nor inactive); the mix of calls is not that of the screen. Calls come from the whole dose curve; as a rule, active = well fitted inhibition curve with a large enough effect; inconclusive = small, poorly fitted or top-dose-only effect; inactive = flat fitted curve, though single readings scatter. Potencies of inconclusive entries are doubtful fits and often do not repeat.

What follows are compounds tested on Chaperonin Mm-Cpn (Methanococcus maripaludis) (assay: Inhibitors of TCP-1 ring complex (TRiC) of Methanococcus maripaludis (MmCpn): qHTS). Details: purified Mm-Cpn ATPase, ADP Transcreener TR-FRET; series mostly up to 76.9 µM.
Procedure, shortened: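 Quantitative HTS used 25 nM Mm-CPN and 10 uM ATP in magnesium/KCl Tris buffer, pH 7.4, with 1 mM DTT. Hydrolysis ran 30 min at 37°C; ADP was read by HTRF.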
Note: nearly all actives have a fitted effect of over 80% in size.
Potency is the fitted concentration of half-maximal effect.
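Throughout, for Potency: enzyme at 25 nM with ATP substrate at 10 µM during the reaction.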

Compound | Potency
COCCCN(C(=S)NC(=O)C12CC3CC(CC(C3)C1)C2)c1c(N)n(Cc2ccccc2)c(=O)[nH]c1=O | inconclusive: 79.4 µM [inhibitor, single point]
COc1ccc(C(=O)Nc2ccnn2C2CCN(Cc3ccn[nH]3)CC2)cc1 | inconclusive: 12.6 µM [inhibitor, single point]
Cc1cc2nc(-c3ccc(SCc4ccc(C#N)cc4)nc3)[nH]c2cc1C | inconclusive: 70.8 µM [inhibitor, single point]
COc1ccc(-c2nnc3ccc(SC)nn23)cc1 | inactive
CCOC(=O)CN1C(=O)CSc2ccc(S(=O)(=O)N3CCOCC3)cc21 | inconclusive: 20 µM [inhibitor, single point]
CCOc1ccc(NC(=O)Nc2cc(C(C)C)c(O)cc2C)cc1 | inactive
O=C(NCc1ccccn1)Nc1ccc(F)c(Cl)c1 | inconclusive: 100 µM [inhibitor, single point]
O=C(Nc1ccc(-c2cn3c(n2)SCC3)cc1)c1ccc2ccccc2n1 | inactive
CCNC(=O)Cn1c(=O)c(=O)n(Cc2ccccc2)c2ccc(Cl)cc21 | inconclusive: 79.4 µM [inhibitor, single point]
CCN(CC)CCCNC(=O)CCc1c(C)n(CC)c2cc(-c3ccccc3OC)nn2c1=O | inactive
Cc1csc(NC(=O)c2cc3c(C)nn(Cc4ccccc4Cl)c3s2)n1 | inconclusive: 79.4 µM [inhibitor, single point]
COc1ccc(Cl)cc1C(=O)NC(=S)Nc1cc(-c2nc3ccccc3[nH]2)ccc1C | inconclusive: 100 µM [inhibitor, single point]
N#CC1=C(S)N(c2ccccc2)C(c2ccc(-c3ccc(Cl)c(Cl)c3)o2)NC1=O (stereo not given) | inactive
COc1ccc(-c2cc(C#N)nc(Cl)n2)cc1 | inactive
C[C@@H]1CC=C[C@H]2[C@H]1C(=O)N(Cc1ccccc1)[C@H]2c1ccc(-c2ccoc2)cc1F | inconclusive: 39.8 µM [inhibitor, single point]
Cc1nnc(SC(C)C(=O)N(C)C2CCCCC2)n1N (stereo not given) | inactive
CCOc1cc(/C=C2\C(=O)N(CCc3ccc(OC)c(OC)c3)C(C)=C2C(=O)OC)ccc1O | inconclusive: 22.4 µM [inhibitor, single point]
COc1ccccc1C1c2c(C)nn(-c3ccccc3)c2NC(=O)C1NC(=O)c1ccccc1 (stereo not given) | inconclusive: 100 µM [inhibitor, single point]
N#CC1=C(SCC(=O)c2ccccc2)NC2=C(C(=O)CCC2)C1c1ccco1 (stereo not given) | inconclusive: 100 µM [inhibitor, single point]
Cc1cccc(N2CCN(C(=O)c3c(Cl)cnn3C)CC2)c1C | inconclusive: 15.8 µM [inhibitor, single point]
COc1ccc(NC(=O)C2CCC2)cc1S(=O)(=O)Nc1cc(C)ccc1Br | inconclusive: 12.6 µM [inhibitor, single point]
CSc1nc(-c2ccc(C)cc2)nc(N)c1C#N | inconclusive: 56.2 µM [inhibitor, single point]

Compound | Potency
COc1ccc(OCCOC(=O)CNC(=O)c2cccc(C)c2)cc1 | inconclusive: 56.2 µM [inhibitor, single point]
O=[N+]([O-])c1ccccc1CN1CCN(c2ncccn2)CC1 | inactive
CCOC(=O)C1CCCN(S(=O)(=O)NC[C@H]2O[C@@H](n3cnc4c(N)ncnc43)[C@H](O)[C@@H]2O)C1 (stereo not given in full) | inconclusive: 79.4 µM [inhibitor, single point]
O=C(O)CCc1ccc(-c2cccs2)n1NC(=O)c1ccccc1Br | inconclusive: 63.1 µM [inhibitor, single point]
CCc1ccc(Nc2n[n+](-c3ccccc3)c(-c3ccc(OCc4ccccc4)cc3)s2)cc1 | inconclusive: 63.1 µM [inhibitor, partial curve]
Cc1ccccc1Nc1nc(N)nc(COC(=O)CCC(=O)c2ccc(F)cc2)n1 | inconclusive: 10 µM [inhibitor, single point]
S=C(NCc1cccc(Cl)c1)NC1CCCCC1 | inconclusive: 10 µM [inhibitor, single point]
O=C(Nc1nc(-c2cc3ccccc3o2)cs1)c1ccc(S(=O)(=O)N2CCCC2)cc1 | inconclusive: 100 µM [inhibitor, single point]
CN(C(=O)CSc1nnc(NCc2ccccc2)s1)C1CCS(=O)(=O)C1 (stereo not given) | inconclusive: 89.1 µM [inhibitor, single point]
Cc1ccc(S(=O)(=O)NNC(=O)C2CCN(S(=O)(=O)c3ccc(C)cc3)CC2)cc1 | inactive
CCCn1c(O)c(CN2CCCCC2)c(C)c(C#N)c1=O | inconclusive: 17.8 µM [inhibitor, single point]
COc1cc(OC)c(C2C(C#N)=C(N)OC3=C2C(=O)CC(C)C3)cc1OC (stereo not given) | inactive
CCOC(=O)C1CCN(C(=O)c2ccc(CNS(=O)(=O)c3ccc(C)cc3)cc2)CC1 | inconclusive: 11.2 µM [inhibitor, single point]
CCS(=O)(=O)Nc1ccc(C2=NN(C(=S)Nc3ccccc3)C(c3ccco3)C2)cc1 (stereo not given) | inconclusive: 126 µM [inhibitor, partial curve, poor fit]
Cc1cccc(-c2ocnc2C(=O)Nc2ccccc2NC(=O)c2ccccn2)c1 | inconclusive: 20 µM [inhibitor, partial curve, poor fit]
COc1cc(OC)c2c(-c3ccccc3)cc(=O)oc2c1C(CCN1CCOCC1)c1ccc(N(C)C)cc1 (stereo not given) | inconclusive: 79.4 µM [inhibitor, single point]
Cc1ccc2c(CN(C)Cc3ccc(Cl)cc3Cl)cc(=O)oc2c1 | inconclusive: 12.6 µM [inhibitor, single point]
CNC(=S)N1N=C(c2ccc(C)cc2)CC1c1cc(OC)ccc1OC (stereo not given) | inconclusive: 79.4 µM [inhibitor, single point]
CC(=O)NC(CC(=O)N(C)C1CCCCC1)c1ccccc1 (stereo not given) | inconclusive: 70.8 µM [inhibitor, single point]
CCOc1ccc(/C=C(\C#N)C(=O)Nc2cccnc2)cc1 | inactive
NS(=O)(=O)c1cccc(NC(=O)c2cccc(N3C(=O)c4ccccc4C3=O)c2)c1 | inconclusive: 100 µM [inhibitor, single point]
COc1ccc(C(=O)/C=C/C(=O)N(CC(=O)NC2CCCCC2)Cc2cccs2)c(O)c1 | inconclusive: 28.2 µM [inhibitor, single point]

Laid out differently: two of the compounds above.
Compound	Potency
O=C(Nc1nc(-c2cc3ccccc3o2)cs1)c1ccc(S(=O)(=O)N2CCCC2)cc1	inconclusive: 100 µM [inhibitor, single point]
Cc1ccc2c(CN(C)Cc3ccc(Cl)cc3Cl)cc(=O)oc2c1	inconclusive: 12.6 µM [inhibitor, single point]

The list continues.

Compound | Potency
Cc1c(C(=O)Nc2ccc3c(c2)CCC3)cccc1[N+](=O)[O-] | inconclusive: 79.4 µM [inhibitor, single point]
COc1cc2c(cc1OC)CN(C(=O)CCc1c[nH]c3ccccc13)[C@H](C(=O)O)C2 | inconclusive: 10 µM [inhibitor, single point]
O=C(N/N=C/CCc1ccccc1)c1ccc(CN2c3cccc4cccc(c34)S2(=O)=O)cc1 | inconclusive: 70.8 µM [inhibitor, single point]
CCCCC(=O)Nc1ccc(C(=O)Nc2ccc(S(=O)(=O)N3CCCC3)cc2)cc1 | inconclusive: 100 µM [inhibitor, single point]
CC(Sc1cccc[n+]1[O-])C(=O)Nc1cccc([N+](=O)[O-])c1 (stereo not given) | inconclusive: 200 µM [inhibitor, partial curve, poor fit]
Cc1cc(C)c(S(=O)(=O)Nc2nnc(CC(C)C)s2)c(C)c1 | inconclusive: 63.1 µM [inhibitor, single point]
COc1cc2c(cc1OC)C(c1ccccc1)N(C(=O)c1ccccc1)CC2 (stereo not given) | inconclusive: 17.8 µM [inhibitor, single point]
Cc1cc2cc(CNS(=O)(=O)c3ccccc3)ccc2n1C | inconclusive: 100 µM [inhibitor, single point]
CC(=O)c1cnc2n(c1=O)CCS2 | inconclusive: 11.2 µM [inhibitor, single point]
CCOC(=O)c1nc(C)sc1-c1ccnn1S(=O)(=O)c1ccc(C)cc1 | inactive
CCOC(=O)/C(C#N)=C/Nc1ccccc1OC(F)(F)F | inconclusive: 79.4 µM [inhibitor, single point]
CCc1cc2cccc(C)c2nc1SCC(=O)Nc1nonc1C | inconclusive: 63.1 µM [inhibitor, single point]
COc1ccc(NC(=S)c2ccc(N(C)C)cc2)cc1 | inconclusive: 100 µM [inhibitor, single point]
COc1ccccc1/C=C1\SC(N2CCC(C)CC2)=NC1=O | inactive
CC1CCCCN1CCCNC(=O)Cn1ncc2c([nH]c3ccccc32)c1=O (stereo not given) | inconclusive: 89.1 µM [inhibitor, single point]
CCC(Oc1ccccc1)C(=O)Nc1ncc([N+](=O)[O-])s1 (stereo not given) | inconclusive: 22.4 µM [inhibitor, single point]
CCN(CC)c1ccc(/C=C/c2cc(-c3ccccc3)c3ccccc3n2)cc1 | active: 35.5 µM
Cc1ccccc1NC(=O)Cc1nc(-c2ccc3ccccc3c2)cs1 | inconclusive: 251 µM [inhibitor, partial curve, poor fit]
CC(C)(C)c1ccc(C(=O)N2CCN(S(=O)(=O)c3ccc(Br)s3)CC2)cc1 | inconclusive: 15.8 µM [inhibitor, single point]
O=C(Nc1ccc(N2CCOCC2)c(S(=O)(=O)Nc2ccc(Cl)cc2)c1)c1cnccn1 | inactive
Cc1ccc(OCC(=O)Nc2nnc(C3CCCO3)s2)c(Br)c1 (stereo not given) | inconclusive: 17.8 µM [inhibitor, single point]
